Source: article PMC7159925
These are yes or no findings as the source states them, for the method shown. Binding seen in cells or lysates may run through a third protein. Some entries that bind do so weakly or less than the wild type. Where a sequence is shown, tags or fusion partners need not be part of it.

Amino acid sequences for entries named in this document (tags omitted).
UniProt Q10658: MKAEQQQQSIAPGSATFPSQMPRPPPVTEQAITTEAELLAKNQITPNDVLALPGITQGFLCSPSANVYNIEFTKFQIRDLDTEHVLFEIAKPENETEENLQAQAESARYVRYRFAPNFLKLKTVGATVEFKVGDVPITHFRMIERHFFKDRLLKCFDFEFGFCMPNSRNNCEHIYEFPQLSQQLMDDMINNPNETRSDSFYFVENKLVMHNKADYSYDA

Biological target: bio-mCherry-UNC-119 (C. elegans) (UniProt Q10658)
Assay: pull-down; streptavidin coated magnetic beads with lysates of HEK293T cells coexpressing BirA, bio-mCherry-UNC-119 (bait) and a GFP labeled prey; 1 hr at 4°C; 100 mM Tris-HCl pH 7.5, 150 mM NaCl, 1% Triton X-100; western blot

binding: binds
B1: UNC-33L::GFP (protein, UniProt Q01630 1-854)
chain: MFPFLAPIRSANHVEQQGTKYYVEITFLADSPYSRAPSSTGTEKSVIPTLRNLDDLETVSNKSRSSEGVNKLGSRPNSRSSAIVKKTSVSSLPTSARSEGKSSPIPVKDAIPAPARHKNKGLEMSSAMMELFGGGGSTSPAPSKRENPADAPSDRVVSNAKLSQPGPEWFEGFEQMDMTDIELPPDPNCPAEKVLRGEKSTPDFDSDWQEAKEDVLDPQSYPKSFNPAESLPGPDIGAGVDDEEEPEAEAQEMEEPQYESKVDEKDDDDNGSSSSKKGHPSEDGDSTRNGETPTDRRNSGAIEETADGESSAQSAAEKKNSGDDGNGGGGEMSILLVKNAQIVNDDAIFVADILIEDGIIQNVAPNLEAPEGAEVLDAAGKLALPAGIDVYTQVTDSSVDDLSTGCKSAIAGGTGTIVEVVRPRGAESVVSAVKRVKNQLEKSGISCHVALSVAITDFCEQEMSELVKNEGINSFVLDGVSLTDDKLLELFEHVKRLGALIRVVPENKSIVAMLEKKMLKLGVTGPEGFPQSRPESLEADRVSGVCVLGNLASCPISIVQVSSADSLAAIEKARASGALAHAEIASAAVTADGSALFSQDLRFASAHLTDVPLRRGAPDRMIGALSTQPLVVCTSGHRPVNSATRVAAKDFAIAQKGSTGAEERMAVVWERAVRSGRIDAMRFVAVTSTNAAKMFNMYPKKGRIAVGADADLVIWDASGKRVLESSRAQSSQENSMYDGLTVHSVVTATIVGGKIAYQNGEVREAPVAGGFLRLSPNSPYLFSMVGQRDKFANVERVEREASSQQQKPQQNGHHKNSGDFDRNRTKVMESSIDFGGSAANRPRNPPGGRTTGFW
